# According to PubChem BioAssay AID1671190 (National Center for Advancing Translational Sciences (NCATS), 2021):
# The chains behind the UniProt entries cited, without tags or fusion partners. Where a name states a change or a piece, a line headed by the entry shows the natural chain unless it says otherwise.
# UniProt P18054: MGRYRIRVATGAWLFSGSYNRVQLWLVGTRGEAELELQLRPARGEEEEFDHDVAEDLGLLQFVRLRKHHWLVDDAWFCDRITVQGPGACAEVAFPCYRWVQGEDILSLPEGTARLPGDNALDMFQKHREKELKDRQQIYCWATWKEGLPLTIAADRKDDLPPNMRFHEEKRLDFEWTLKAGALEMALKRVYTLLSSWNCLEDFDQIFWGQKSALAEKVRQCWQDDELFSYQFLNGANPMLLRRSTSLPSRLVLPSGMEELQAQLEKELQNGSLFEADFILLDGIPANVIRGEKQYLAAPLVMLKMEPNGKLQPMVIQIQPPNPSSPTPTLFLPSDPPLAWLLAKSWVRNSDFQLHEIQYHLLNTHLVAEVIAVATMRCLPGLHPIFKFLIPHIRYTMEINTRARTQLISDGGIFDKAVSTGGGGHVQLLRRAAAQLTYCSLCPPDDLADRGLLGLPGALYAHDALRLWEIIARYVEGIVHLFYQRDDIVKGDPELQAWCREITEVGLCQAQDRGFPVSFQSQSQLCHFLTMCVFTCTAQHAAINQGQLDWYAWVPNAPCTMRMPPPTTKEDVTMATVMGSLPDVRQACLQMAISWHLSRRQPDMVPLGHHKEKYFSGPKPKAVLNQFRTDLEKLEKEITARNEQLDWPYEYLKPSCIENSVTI
# About 6,100 (1.1%) of roughly 580,000 compounds were called active. This list was built around the results that the source calls inconclusive (neither active nor inactive); the mix of calls is not that of the screen. Calls come from the whole dose curve; as a rule, active = well fitted inhibition curve with a large enough effect; inconclusive = small, poorly fitted or top-dose-only effect, or another doubt; inactive = no such curve, though single readings can be large or run the other way. Where the call is inconclusive, the potency comes from a doubtful curve fit.
# Biological target: Polyunsaturated fatty acid lipoxygenase ALOX12 (Homo sapiens) (UniProt P18054)
# Assay: Primary qHTS assay for inhibitors of human arachidonate 12S-lipoxygenase (ALOX12): Round 2
# Conditions: purified 12hLO, xylenol orange hydroperoxide absorbance; activity change, negative = inhibition: at 108 µM (top of the series) unless noted
# Procedure, shortened: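 Purified human 12hLO at 150 nM in 25 mM Hepes, 0.01% Triton X-100, pH 7.0, preincubated 15 min at room temperature with compound. Reaction started with 40 uM arachidonic acid, 30 min at room temperature. Hydroperoxide measured by Fe-xylenol orange, 573/405 nm absorbance ratio.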
# % is set by controls: 0 for no effect and ±100 for the full control effect; potency is the fitted concentration of half-maximal effect.
SMILES,Potency,"activity change, negative = inhibition"
O=c1c2c(nc3cc(-c4ccc(Cl)cc4)[nH]n13)CCS2,"inconclusive: 100 µM [inhibitor, partial curve, poor fit]",
COc1ccc(C(CC(=O)NCCC(C)C)c2c[nH]c3ccccc23)c(OC)c1 (stereo not drawn),"inconclusive: 11.2 µM [inhibitor, full curve, poor fit]",
CC1CCC(C(C)C)C(OCCC[N+](C)(C)C)C1 (stereo not drawn),"inconclusive: 5.62 µM [inhibitor, full curve, poor fit]",
CCC1=C(C(=O)OC)C(c2ccccc2OC)N2C(CC(=O)N3CCCCC3C)=CSC2=N1 (stereo not drawn),,inactive: 77.4%
CCOC(=O)C(NC(=O)c1ccccc1F)(Nc1cc(C)on1)C(F)(F)F (stereo not drawn),,inactive: -15.8%
CCOC(=O)c1c(/N=C/N(C)C)sc(/C=N/Nc2ccccc2)c1-c1ccccc1Cl,"inconclusive: 44.7 µM [inhibitor, partial curve, poor fit]",
CCCCCCN1CCN(C2CN(CCCC)S(=O)(=O)C2)CC1 (stereo not drawn),"inconclusive: 126 µM [inhibitor, single point]",
COc1cc(NC(=O)NC(C)c2ccc(Cl)cc2Cl)cc(OC)c1OC (stereo not drawn),,inactive: 52.8%
CCCC[n+]1ccn(C2=C([O-])c3ccccc3C(=O)/C2=N\S(=O)(=O)c2ccccc2)c1,,inactive: 36.7%
Oc1c(C(c2cccc(Br)c2)N2CCCC2)sc2nc(-c3ccco3)nn12 (stereo not drawn),"inconclusive: 50.1 µM [inhibitor, partial curve, poor fit]",
COP(=O)(OC)c1nc(-c2ccc(C)cc2)oc1N1CCCCC1,,inactive: 0%
Cc1ccccc1C(=O)NC(C(=O)N1CCCC1)C1CCN(C(=O)c2ccc3c(c2)OCO3)CC1 (stereo not drawn),,inactive: 27.4%
CSCCC(NC(=O)c1ccc(Cl)cc1Cl)C(=O)Nc1cccc(C(C)=O)c1 (stereo not drawn),"inconclusive: 35.5 µM [inhibitor, partial curve, poor fit]",
OCC1(Cc2ccc(F)cc2)CCCN(CCc2ccccc2)C1 (stereo not drawn),"inconclusive: 89.1 µM [inhibitor, single point]",
CCCn1c(SCC(=O)Nc2ccc(OCC)cc2)nnc1C(C)C,,inactive: 0% [at 57.4 µM]
Cc1cc(=O)n2[nH]c(COc3ccccc3)nc2n1,,inactive: 6.44%
CC(C)(C)OC(=O)NCC(=O)O,"inconclusive: 28.2 µM [inhibitor, partial curve, poor fit]",
Fc1ccc(N/N=C/c2ccc(Cl)cc2Cl)c(F)c1,"inconclusive: 8.91 µM [inhibitor, full curve, poor fit]",
O=C(Nc1nnc(C2=COCCO2)o1)c1ccc(S(=O)(=O)N2CCCC2)cc1,,inactive: 17.7%
Cc1ccc(C(=O)N(Cc2cc3cc4c(cc3nc2N2CCOCC2)CCC4)CC2CCCO2)cc1 (stereo not drawn),,inactive: -1.91%
O=S(=O)(NC[C@H]1O[C@@H](CO)[C@@H](O)[C@H]1N1CCCC1)c1cccs1,active: 15.8 µM,
Cc1cccc(NC(=O)/C(=C\c2ccc([N+](=O)[O-])o2)NC(=O)c2ccc(Cl)cc2)c1,"inconclusive: 56.2 µM [inhibitor, partial curve, poor fit]",

# 3 records picked at random from those above, as already listed:
SMILES,Potency,"activity change, negative = inhibition"
Fc1ccc(N/N=C/c2ccc(Cl)cc2Cl)c(F)c1,"inconclusive: 8.91 µM [inhibitor, full curve, poor fit]",
CCCn1c(SCC(=O)Nc2ccc(OCC)cc2)nnc1C(C)C,,inactive: 0% [at 57.4 µM]
Cc1cccc(NC(=O)/C(=C\c2ccc([N+](=O)[O-])o2)NC(=O)c2ccc(Cl)cc2)c1,"inconclusive: 56.2 µM [inhibitor, partial curve, poor fit]",

# The results go on:

SMILES,Potency,"activity change, negative = inhibition"
CCOc1ccccc1NC(=O)Cn1nc(C(=O)O)c2ccccc2c1=O,"inconclusive: 50.1 µM [inhibitor, partial curve, poor fit]",
O=C(NC(=S)NCC1CCCO1)c1ccccc1[N+](=O)[O-] (stereo not drawn),"inconclusive: 50.1 µM [inhibitor, partial curve, poor fit]",
OC(COc1c(F)cc(Br)cc1F)CN1CCc2ccccc2C1 (stereo not drawn),"inconclusive: 79.4 µM [inhibitor, partial curve, poor fit]",
COCCn1c(-c2ccc(-c3ccc([N+](=O)[O-])cc3Br)o2)nc2c1c(=O)[nH]c(=O)n2CC(C)C,"inconclusive: 15.8 µM [inhibitor, single point]",
C=C(C)Cn1c(NCCO)nc2c1c(=O)[nH]c(=O)n2C,,inactive: -24.5%
CCOC(=O)N1CCN(C/C(Cl)=C/c2ccccc2)CC1,active: 2.24 µM,
O=C(N1CCOCC1)N1CCn2c(nnc2-c2cncc(Br)c2)C1,"inconclusive: 10 µM [inhibitor, full curve]",
COc1ccc(NC(=O)Nc2ccc3c(c2)C(=O)N([C@H](C)CO)C[C@H](C)[C@@H](CN(C)S(=O)(=O)c2ccc(OC)cc2)O3)cc1,"inconclusive: 158 µM [inhibitor, single point]",
COc1ccc(/C(C#N)=C/c2ccc(OCCOc3ccccc3)cc2)cc1OC,,inactive: 4.59%
COc1ccc(C(=O)/C=C/c2ccc(C#N)cc2)cc1F,,inactive: 44.7%
COCCNc1ncncc1-c1c(C)noc1C,"inconclusive: 39.8 µM [inhibitor, partial curve, poor fit]",
CN=c1scc(-c2cc(OC)ccc2OC)n1/N=C/c1c(C)[nH]c2ccccc12,"inconclusive: 44.7 µM [inhibitor, partial curve, poor fit]",
Cn1c(-c2cccc(Br)c2)cnc1NCc1cccc(F)c1,active: 11.2 µM,
CCn1ncc(-c2ccnc3cc(C(=O)O)nn23)c1C,"inconclusive: 6.31 µM [inhibitor, full curve]",
CC(=O)c1c(C)[nH]c(C(=O)CSc2nnc(-c3ccco3)n2Cc2ccccc2)c1C,"inconclusive: 15.8 µM [inhibitor, partial curve, poor fit]",
O=C(C1CCN(S(=O)(=O)c2c(Cl)cccc2Cl)CC1)N1CCCC1,,inactive: 7.72%
Cn1c(-c2sccc2OCc2ccccc2)n[nH]c1=S,"inconclusive: 44.7 µM [inhibitor, partial curve, poor fit]",
Cc1cc(Cl)ccc1NC(=O)CCNC(=O)CCC(=O)c1cccs1,"inconclusive: 50.1 µM [inhibitor, partial curve, poor fit]",
COc1ccccc1Cc1nnc(NC(=O)C2CCCO2)s1 (stereo not drawn),"inconclusive: 20 µM [inhibitor, partial curve, poor fit]",
Cc1ccc(S(=O)(=O)NCC(=O)OCN2C(=O)c3ccccc3C2=O)cc1,"inconclusive: 22.4 µM [inhibitor, single point]",
N#Cc1nc(-c2ccco2)oc1N1CCc2ccccc2C1,"inconclusive: 39.8 µM [inhibitor, partial curve, poor fit]",
